Tested on: pigs in which lung injury was induced
Assay: Urine excretion in pigs with HCl-induced pulmonary injury
Settings: pig

## NS(=O)(=O)c1cc(C(=O)O)c(NCc2ccco2)cc1Cl [furosemide]
30-60 min after HCl aspiration (before drug administration)
  rate of urine excretion: 1.08 ± 0.24 mL/h/kg
30-60 min after the end of administration (150-180 min after HCl aspiration)
  rate of urine excretion: 1.62 ± 0.54 mL/h/kg
First 30 min of administration (60-90 min after HCl aspiration), ANP 0.1 μg/kg/min i.v., furosemide 0.05 mg/kg i.v.
  rate of urine excretion: 6.6 ± 3.12 mL/h/kg

Source: patent US5418219A, “Pharmaceutical composition for treatment of adult respiratory distress syndrome containing human ANP” (Suntory Limited, priority 1992, dated 1995)
